Amino acid sequences for entries named in this document (tags omitted). A change or cut given only in a name is not applied to a line headed by its entry.
UniProt P23368: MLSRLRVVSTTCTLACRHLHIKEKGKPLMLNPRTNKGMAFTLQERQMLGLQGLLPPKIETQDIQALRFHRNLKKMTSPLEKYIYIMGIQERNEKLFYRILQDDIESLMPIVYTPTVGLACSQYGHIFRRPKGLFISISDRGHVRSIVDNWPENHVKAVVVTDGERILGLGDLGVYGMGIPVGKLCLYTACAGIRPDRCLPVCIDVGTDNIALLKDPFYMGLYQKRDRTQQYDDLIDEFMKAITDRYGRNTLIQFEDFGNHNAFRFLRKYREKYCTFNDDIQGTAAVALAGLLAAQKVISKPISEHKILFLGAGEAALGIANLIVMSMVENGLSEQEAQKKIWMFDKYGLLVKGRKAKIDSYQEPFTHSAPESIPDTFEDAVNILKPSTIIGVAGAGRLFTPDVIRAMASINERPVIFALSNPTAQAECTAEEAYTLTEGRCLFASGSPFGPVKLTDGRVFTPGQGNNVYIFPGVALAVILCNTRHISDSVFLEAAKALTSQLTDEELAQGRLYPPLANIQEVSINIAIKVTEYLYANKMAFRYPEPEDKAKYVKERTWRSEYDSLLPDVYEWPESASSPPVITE
UniProt P04406: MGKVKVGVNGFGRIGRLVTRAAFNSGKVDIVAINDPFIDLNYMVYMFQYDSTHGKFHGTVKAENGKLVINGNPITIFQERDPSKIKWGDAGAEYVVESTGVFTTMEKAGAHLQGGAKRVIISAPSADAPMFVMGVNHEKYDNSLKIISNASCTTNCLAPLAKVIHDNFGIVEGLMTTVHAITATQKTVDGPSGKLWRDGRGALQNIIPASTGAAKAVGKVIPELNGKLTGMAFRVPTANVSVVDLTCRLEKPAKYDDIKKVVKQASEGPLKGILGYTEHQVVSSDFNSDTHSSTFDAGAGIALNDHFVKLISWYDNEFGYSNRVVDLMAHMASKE
UniProt P14618: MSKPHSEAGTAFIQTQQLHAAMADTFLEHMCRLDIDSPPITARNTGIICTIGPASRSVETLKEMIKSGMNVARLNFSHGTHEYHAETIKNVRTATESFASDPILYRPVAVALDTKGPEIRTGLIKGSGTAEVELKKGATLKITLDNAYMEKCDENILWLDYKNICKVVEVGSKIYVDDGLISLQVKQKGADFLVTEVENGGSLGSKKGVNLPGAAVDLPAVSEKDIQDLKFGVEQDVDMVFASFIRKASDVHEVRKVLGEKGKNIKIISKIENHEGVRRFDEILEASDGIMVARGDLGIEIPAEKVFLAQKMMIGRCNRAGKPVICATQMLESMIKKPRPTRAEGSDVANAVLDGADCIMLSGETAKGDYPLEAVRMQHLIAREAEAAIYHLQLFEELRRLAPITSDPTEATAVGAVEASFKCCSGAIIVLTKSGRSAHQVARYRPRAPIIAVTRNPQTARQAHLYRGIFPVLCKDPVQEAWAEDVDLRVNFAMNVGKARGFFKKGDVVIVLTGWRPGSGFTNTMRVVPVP
UniProt P00558: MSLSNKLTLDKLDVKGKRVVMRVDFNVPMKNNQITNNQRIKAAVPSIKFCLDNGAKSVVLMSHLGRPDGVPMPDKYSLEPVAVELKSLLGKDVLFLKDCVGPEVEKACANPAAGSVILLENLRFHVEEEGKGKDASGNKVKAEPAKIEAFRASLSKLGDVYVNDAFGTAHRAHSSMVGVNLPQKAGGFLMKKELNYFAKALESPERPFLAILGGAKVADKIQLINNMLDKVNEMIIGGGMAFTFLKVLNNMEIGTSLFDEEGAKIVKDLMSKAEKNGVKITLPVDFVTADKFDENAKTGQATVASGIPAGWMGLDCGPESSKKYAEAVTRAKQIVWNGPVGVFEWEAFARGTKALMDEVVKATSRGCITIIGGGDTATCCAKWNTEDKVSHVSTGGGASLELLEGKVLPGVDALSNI
UniProt P60174: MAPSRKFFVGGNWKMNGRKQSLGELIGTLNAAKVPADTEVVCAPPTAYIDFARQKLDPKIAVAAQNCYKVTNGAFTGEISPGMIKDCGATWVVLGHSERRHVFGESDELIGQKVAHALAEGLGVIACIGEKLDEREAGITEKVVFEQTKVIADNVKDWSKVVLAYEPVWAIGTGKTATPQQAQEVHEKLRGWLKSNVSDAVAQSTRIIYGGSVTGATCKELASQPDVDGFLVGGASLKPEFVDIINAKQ
UniProt Q99KE1: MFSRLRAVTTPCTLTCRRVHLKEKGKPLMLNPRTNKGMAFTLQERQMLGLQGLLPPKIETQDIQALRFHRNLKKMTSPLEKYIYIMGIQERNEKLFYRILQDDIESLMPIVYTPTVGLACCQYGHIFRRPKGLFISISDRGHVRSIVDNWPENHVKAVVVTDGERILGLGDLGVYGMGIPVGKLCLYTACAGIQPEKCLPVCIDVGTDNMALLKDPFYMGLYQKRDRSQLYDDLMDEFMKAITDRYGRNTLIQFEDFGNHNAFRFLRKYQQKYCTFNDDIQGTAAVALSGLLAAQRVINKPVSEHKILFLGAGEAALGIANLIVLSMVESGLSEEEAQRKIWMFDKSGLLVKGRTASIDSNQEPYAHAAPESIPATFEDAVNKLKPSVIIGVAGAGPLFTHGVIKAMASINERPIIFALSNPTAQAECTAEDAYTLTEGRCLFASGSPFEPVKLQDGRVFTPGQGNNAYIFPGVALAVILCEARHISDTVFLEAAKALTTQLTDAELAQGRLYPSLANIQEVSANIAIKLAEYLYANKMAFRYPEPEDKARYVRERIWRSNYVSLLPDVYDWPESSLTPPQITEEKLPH
UniProt P31749: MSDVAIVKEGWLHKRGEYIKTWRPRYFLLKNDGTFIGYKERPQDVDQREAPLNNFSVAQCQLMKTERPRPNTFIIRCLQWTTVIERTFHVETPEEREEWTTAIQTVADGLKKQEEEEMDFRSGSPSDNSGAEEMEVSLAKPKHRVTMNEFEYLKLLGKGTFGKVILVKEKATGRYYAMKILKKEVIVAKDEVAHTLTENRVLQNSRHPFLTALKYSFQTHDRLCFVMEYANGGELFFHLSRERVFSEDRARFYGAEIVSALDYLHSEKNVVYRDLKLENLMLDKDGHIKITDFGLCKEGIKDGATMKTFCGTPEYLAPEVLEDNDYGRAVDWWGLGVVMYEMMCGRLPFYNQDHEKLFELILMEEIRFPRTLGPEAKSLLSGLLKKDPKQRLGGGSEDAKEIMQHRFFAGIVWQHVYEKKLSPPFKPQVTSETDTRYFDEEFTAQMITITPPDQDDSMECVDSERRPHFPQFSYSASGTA
UniProt P52480: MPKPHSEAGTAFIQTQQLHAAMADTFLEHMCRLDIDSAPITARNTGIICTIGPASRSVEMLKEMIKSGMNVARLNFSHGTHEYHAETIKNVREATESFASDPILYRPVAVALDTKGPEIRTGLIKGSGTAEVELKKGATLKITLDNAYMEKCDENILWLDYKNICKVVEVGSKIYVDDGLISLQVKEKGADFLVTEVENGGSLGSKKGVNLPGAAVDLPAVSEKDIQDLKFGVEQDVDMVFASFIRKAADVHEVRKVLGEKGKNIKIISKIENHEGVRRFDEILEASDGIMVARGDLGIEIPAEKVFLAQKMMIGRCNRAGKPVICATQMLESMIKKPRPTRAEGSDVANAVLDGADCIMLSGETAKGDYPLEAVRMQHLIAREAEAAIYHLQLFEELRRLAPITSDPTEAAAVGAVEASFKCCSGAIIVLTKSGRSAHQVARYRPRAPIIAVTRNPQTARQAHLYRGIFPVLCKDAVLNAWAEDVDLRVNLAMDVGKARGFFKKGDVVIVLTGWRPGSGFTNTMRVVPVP

According to publication PMC10805786:

Legend:
[1] = molecular target: ME2fl (full-length cytoplasmic malic enzyme 2), transfected (human) (UniProt P23368); test: co-IP; cytoplasmic fraction of transfected HEK293T cells, anti-Flag immunoprecipitation, western blot
[2] = molecular target: ME2fl (full-length cytoplasmic malic enzyme 2), transfected (human) (UniProt P23368); test: co-IP; HEK293T cells transfected for 24 h, total lysates in IP lysis buffer (50 mM Tris-HCl pH 7.4, 150 mM NaCl, 1% TritonX-100, 5 mM EDTA, 1% sodium deoxycholate), anti-Flag immunoprecipitation, western blot
[3] = molecular target: Flag-tagged GAPDH (UniProt P04406); test: co-IP; sequential co-precipitation of exogenous proteins (Supplementary Fig. 12c-g)
[4] = molecular target: T1, Flag-tagged PFKL (UniProt P17858); test: as above
T1 sequence: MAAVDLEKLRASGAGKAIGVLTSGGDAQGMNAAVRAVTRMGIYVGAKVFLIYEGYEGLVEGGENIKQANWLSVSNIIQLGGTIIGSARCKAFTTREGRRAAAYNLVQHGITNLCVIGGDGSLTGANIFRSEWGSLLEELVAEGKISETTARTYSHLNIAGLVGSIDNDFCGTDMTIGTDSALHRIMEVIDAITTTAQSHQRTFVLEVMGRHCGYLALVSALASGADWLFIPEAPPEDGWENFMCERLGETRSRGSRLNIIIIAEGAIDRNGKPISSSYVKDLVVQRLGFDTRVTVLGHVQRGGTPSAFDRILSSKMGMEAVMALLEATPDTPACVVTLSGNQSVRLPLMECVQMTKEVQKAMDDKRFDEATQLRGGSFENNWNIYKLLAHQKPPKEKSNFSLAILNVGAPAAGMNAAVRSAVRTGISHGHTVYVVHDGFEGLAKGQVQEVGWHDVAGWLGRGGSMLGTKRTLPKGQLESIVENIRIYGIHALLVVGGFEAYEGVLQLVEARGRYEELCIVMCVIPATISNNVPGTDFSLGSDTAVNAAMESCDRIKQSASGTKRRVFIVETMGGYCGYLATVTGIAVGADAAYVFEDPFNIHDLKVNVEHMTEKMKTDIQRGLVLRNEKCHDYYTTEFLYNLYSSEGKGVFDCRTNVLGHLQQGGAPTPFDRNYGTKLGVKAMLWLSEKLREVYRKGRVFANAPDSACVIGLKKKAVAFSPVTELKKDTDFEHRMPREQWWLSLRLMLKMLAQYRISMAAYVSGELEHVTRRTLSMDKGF

[5] = molecular target: Flag-tagged PKM2 (UniProt P14618); test: as above
[6] = molecular target: Flag-tagged GAPDH (UniProt P04406); test: co-IP; HEK293T cells transfected for 24 h, total lysates in IP lysis buffer (50 mM Tris-HCl pH 7.4, 150 mM NaCl, 1% TritonX-100, 5 mM EDTA, 1% sodium deoxycholate), anti-Flag immunoprecipitation, western blot
[7] = molecular target: T1, Flag-tagged PFKL; test: as above
[8] = molecular target: Flag-tagged PKM2 (UniProt P14618); test: as above
[9] = molecular target: Flag-tagged PGK1 (UniProt P00558); test: as above
[10] = molecular target: Flag-tagged TPI (UniProt P60174); test: as above
[11] = molecular target: ME2fl, endogenous in mouse prostate tissue (mouse (endogenous in prostate tissue)) (UniProt Q99KE1); test: co-IP; endogenous proteins, lysates of prostate tissues of Pb-Cre- Pten L/L and Pb-Cre+ Pten L/L mice, anti-ME2 antibody, western blot
[12] = molecular target: 5'GST-ME2fl (human); test: pull-down; GST fusion protein from E. coli on glutathione agarose beads, Flag-tagged protein purified from HEK293T; binding buffer 50 mM Tris-HCl pH 8.0, 150 mM NaCl, 1% Triton X-100, 1 mM PMSF, 12 h at 4 °C; anti-Flag blot; both purified

AKT1, transfected (from UniProt P31749 1-480) (enzyme)
binding [1]: binds | binding [2]: binds

ME2fl (full-length cytoplasmic malic enzyme 2), transfected (from UniProt P23368)
binding [3]: binds | binding [4]: binds | binding [5]: binds | binding [6]: binds | binding [7]: binds | binding [8]: binds

ME2flS9D-3'HA (from UniProt P23368) (enzyme)
binding [6]: binds | binding [7]: binds | binding [9]: no binding | binding [8]: binds | binding [10]: no binding

PKM2, endogenous in mouse prostate tissue (from UniProt P52480 1-531) (enzyme)
binding [11]: binds

B1: Flag-tagged PFKL (enzyme, UniProt P17858 1-780)
chain: MAAVDLEKLRASGAGKAIGVLTSGGDAQGMNAAVRAVTRMGIYVGAKVFLIYEGYEGLVEGGENIKQANWLSVSNIIQLGGTIIGSARCKAFTTREGRRAAAYNLVQHGITNLCVIGGDGSLTGANIFRSEWGSLLEELVAEGKISETTARTYSHLNIAGLVGSIDNDFCGTDMTIGTDSALHRIMEVIDAITTTAQSHQRTFVLEVMGRHCGYLALVSALASGADWLFIPEAPPEDGWENFMCERLGETRSRGSRLNIIIIAEGAIDRNGKPISSSYVKDLVVQRLGFDTRVTVLGHVQRGGTPSAFDRILSSKMGMEAVMALLEATPDTPACVVTLSGNQSVRLPLMECVQMTKEVQKAMDDKRFDEATQLRGGSFENNWNIYKLLAHQKPPKEKSNFSLAILNVGAPAAGMNAAVRSAVRTGISHGHTVYVVHDGFEGLAKGQVQEVGWHDVAGWLGRGGSMLGTKRTLPKGQLESIVENIRIYGIHALLVVGGFEAYEGVLQLVEARGRYEELCIVMCVIPATISNNVPGTDFSLGSDTAVNAAMESCDRIKQSASGTKRRVFIVETMGGYCGYLATVTGIAVGADAAYVFEDPFNIHDLKVNVEHMTEKMKTDIQRGLVLRNEKCHDYYTTEFLYNLYSSEGKGVFDCRTNVLGHLQQGGAPTPFDRNYGTKLGVKAMLWLSEKLREVYRKGRVFANAPDSACVIGLKKKAVAFSPVTELKKDTDFEHRMPREQWWLSLRLMLKMLAQYRISMAAYVSGELEHVTRRTLSMDKGF
binding [12]: binds

No constants are given. Whether binding was seen depends on the method and setting. For part of these data: Binding calls can cover weak binding; strength is not graded here. For part of these data: Where a sequence is shown, tags or fusion partners need not be part of it. For part of these data: Binding seen in cells or lysates may run through a third protein.
